# Experimental data as given in PubChem BioAssay AID504467 (National Center for Advancing Translational Sciences (NCATS), 2011).
# The campaign covered roughly 330,000 compounds. About 7,700 (2.3%) were called active. Inconclusive results, whose numbers are uncertain, are shown with a selection of clear calls. Calls follow the shape of the dose curve; as a rule, active = well fitted inhibition curve with a large enough effect; inconclusive = small, poorly fitted or top-dose-only effect, or effect the other way; inactive = flat fitted curve, though single readings scatter. A potency beside an inconclusive call is a rough fit, not a confirmed value.
# Test: qHTS screen for small molecules that inhibit ELG1-dependent DNA repair in human embryonic kidney (HEK293T) cells expressing luciferase-tagged ELG1; also: nearly all actives have a fitted effect of over 55% in size
# Conditions: HEK293T ELG1-luciferase reporter, luminescence, 16 h, DNA damage induced by 5-fluorouridine; activity change, negative = inhibition: at 46.1 µM (top of the series)
# Procedure, shortened: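 Quantitative HTS, concentration-response format. 2,000 cells/well co-treated with 5-fluorouridine and compound, 16 hr in 5% CO2 at 37 °C; ONE-Glo luminescence read after 30 min.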
# % is scaled to controls: 0 for no effect and ±100 for the full control effect; potency is read from the fitted curve at half-maximal effect.
SMILES,Potency,"activity change, negative = inhibition"
C(#Cc1ccccc1)C[N+]1(CC#Cc2ccccc2)CCCCC1,"inconclusive: 18.3 µM [inhibitor, single point]",–
COc1ccc(S(=O)(=O)Nc2cc(SCC(=O)O)c(O)c3ccccc23)cc1,active: 16.4 µM,–
Cc1ccc(-c2csc(NC(=O)COC(=O)c3cccc(S(=O)(=O)N4CCOCC4)c3)n2)cc1,"inconclusive: 18.4 µM [activator, partial curve]",–
COc1ccccc1C(=O)NNC(=O)c1ccc(NC(=O)c2ccccc2)cc1,"inconclusive: 29.1 µM [inhibitor, single point]",–
O=c1[nH]c(CSc2nnc(-c3ccco3)n2-c2ccccc2)nc2sc3c(c12)CCC3,"inconclusive: 20.6 µM [inhibitor, partial curve]",–
O=C1C2C3CCC(C3NCc3ccccc3)C2C(=O)N1Cc1ccccc1 (stereo not drawn),–,inactive: -11.3%
CCOC(=O)c1c(C)[nH]c(C(C)=NNC(=O)Cn2nc(C)cc2C)c1C,–,inactive: 9.55%
O=C(Nc1ccc(N2CCN(C(=O)c3ccco3)CC2)cc1)c1ccccc1,"inconclusive: 25.9 µM [inhibitor, single point]",–
Cn1c(SCc2ccccc2)nnc1-c1ccc2nonc2c1,"inconclusive: 25.9 µM [activator, partial curve, poor fit]",–
Cc1ccc(C(=O)CC(=O)c2ccccc2C)c(O)c1,–,inactive: -11.4%
CCN(C(=O)COC(=O)c1nccnc1N)c1cccc2ccccc12,–,inactive: 0.587%
O=C(NCC(=O)N1CCN(C/C=C/c2ccccc2)CC1)c1ccc(OC(F)F)cc1,"inconclusive: 23.1 µM [inhibitor, single point]",–
O=C(O)C1CCC(=O)N(C2CC2)C1c1ccccc1 (stereo not drawn),"inconclusive: 5.62 µM [inhibitor, single point]",–
COc1ccc(NC(=O)c2ccccc2C)c(OC)c1,"inconclusive: 5.17 µM [inhibitor, partial curve, poor fit]",–
Fc1ccc(-c2nc3c(Cl)cc(C(F)(F)F)cn3c2Cl)cc1,"inconclusive: 20.6 µM [activator, partial curve]",–
CCn1c(=O)n(CC)c2cc(S(=O)(=O)Nc3ccccc3C)c(C)cc21,"inconclusive: 18.4 µM [activator, single point]",–
Oc1nc(Nc2ccccc2)sc1/C=C1\C=Nc2ccccc21,"inconclusive: 1.46 µM [activator, partial curve]",–
Cc1c(Cl)cccc1NC(=S)N/N=C/c1ccccc1Cl,"inconclusive: 29.1 µM [activator, partial curve, poor fit]",–
COc1cccc(CNC(=O)c2ccc(Cl)c(S(=O)(=O)N3CCOCC3)c2)c1,–,inactive: -28.5%
CCN(CC(=O)Nc1cccc(Br)c1)Cc1nc2ccccc2c(=O)[nH]1,–,inactive: -1.96%
COc1cc(/C=C(\C#N)c2nc3c(s2)CCCC3)ccc1O,"inconclusive: 9.2 µM [activator, partial curve]",–
CCOC(=O)c1c(NC(=O)CN2C(=O)NC(C)(c3ccccc3)C2=O)sc(C)c1C (stereo not drawn),"inconclusive: 20.6 µM [inhibitor, single point]",–

# Single records, from the list above:
# COc1cc(/C=C(\C#N)c2nc3c(s2)CCCC3)ccc1O is listed as Potency: inconclusive: 9.2 µM [activator, partial curve]
# COc1ccc(S(=O)(=O)Nc2cc(SCC(=O)O)c(O)c3ccccc23)cc1 is listed as Potency: active: 16.4 µM

# Continued.

SMILES,Potency,"activity change, negative = inhibition"
COC(=O)C1=C(C)Nc2c(c(=O)n(C)c(=O)n2C)C1c1ccc(Cl)cc1 (stereo not drawn),"inconclusive: 18.4 µM [inhibitor, partial curve]",–
Cc1ccc(OCC(=O)Nc2cccc(C)n2)c(C)c1,"inconclusive: 5.17 µM [activator, partial curve]",–
Cn1c(=O)c2c(nc(CN3CCN(C(=O)c4ccco4)CC3)n2Cc2cccc(Cl)c2)n(C)c1=O,"inconclusive: 32.6 µM [inhibitor, single point]",–
CCOc1ccc(/C=C2\SC(=S)N(CCC(=O)Nc3ccc(C(=O)O)cc3)C2=O)cc1,"inconclusive: 25.9 µM [activator, partial curve]",–
CCN(CC)CCn1c(O)c(N=O)c2ccccc21,–,inactive: -3.4%
Cc1ccc(OCCN2C(=O)CSC2=O)cc1,"inconclusive: 20.6 µM [activator, single point]",–
CCCc1ccc(OCc2nc(-c3ccc(NC(=O)c4cccs4)cc3)no2)cc1,"inconclusive: 20.6 µM [activator, partial curve]",–
CCOC1=NS(=O)(=O)c2ccccc21,"inconclusive: 23.1 µM [activator, partial curve, poor fit]",–
COc1ccccc1CNC(=O)c1cn(C)c2ccc(S(=O)(=O)N3CCCC3)cc2c1=O,–,inactive: -16.3%
COc1ccc(-c2[nH]c(-c3ccc(C(=O)O)cc3)nc2-c2ccccc2)cc1,"inconclusive: 3.55 µM [inhibitor, single point]",–
CCOC(=O)c1sc2ncc([N+](=O)[O-])cc2c1N,"inconclusive: 20.6 µM [activator, partial curve, poor fit]",–
Cc1ccc(/C=N/NC(=O)C[n+]2ccccc2)s1,"inconclusive: 20.6 µM [activator, single point]",–
O=C1NC(=O)/C(=C\c2ccc(OCc3cccc(C(=O)O)c3)c(Cl)c2)N1,"inconclusive: 1.3 µM [activator, partial curve]",–
CC1CCCN(C(=O)c2ccc(NS(=O)(=O)c3ccc4[nH]c(=O)[nH]c4c3)cc2)C1 (stereo not drawn),–,inactive: 0.0729%
O=C(OCCN1C(=O)c2cccc3c(N4CCOCC4)ccc(c23)C1=O)c1cc(Cl)cc(Cl)c1,"inconclusive: 6.51 µM [inhibitor, single point]",–
COc1cc(/C=N/NC(=O)c2cccc(NC(=O)c3ccccc3Cl)c2)ccc1O,"inconclusive: 20.6 µM [inhibitor, partial curve, poor fit]",–
Cc1coc2c1c(C)cc1oc(=O)c(CC(=O)N[C@H](C(=O)O)C(C)C)c(C)c12,–,inactive: 0.42%
COC(=O)Nc1ccc(S(=O)(=O)NC2CCS(=O)(=O)C2)cc1 (stereo not drawn),–,inactive: -6.24%
O=C(O)c1cnn(-c2nc(-c3ccc(Cl)cc3)cs2)c1C(F)(F)F,"inconclusive: 7.3 µM [activator, partial curve]",–
Cc1ccccc1OCC(=O)N/N=C/c1cn(Cc2ccccc2)c2ccccc12,–,inactive: 7.45%
Cc1ccc(NC(=O)C2CCN(S(=O)(=O)c3c(C)noc3C)CC2)cc1C,–,inactive: -5.12%
